Results reported in patent publication US20240058465A1.
These are yes or no findings as the source states them, for the method shown. Some results given as binding are weak or reduced against the parent protein; the word gives no strength.

Sequences of proteins named here, by UniProt entry; tags and fusion partners are left off. Residues count along the entry.
UniProt Q01973, residues 30-403: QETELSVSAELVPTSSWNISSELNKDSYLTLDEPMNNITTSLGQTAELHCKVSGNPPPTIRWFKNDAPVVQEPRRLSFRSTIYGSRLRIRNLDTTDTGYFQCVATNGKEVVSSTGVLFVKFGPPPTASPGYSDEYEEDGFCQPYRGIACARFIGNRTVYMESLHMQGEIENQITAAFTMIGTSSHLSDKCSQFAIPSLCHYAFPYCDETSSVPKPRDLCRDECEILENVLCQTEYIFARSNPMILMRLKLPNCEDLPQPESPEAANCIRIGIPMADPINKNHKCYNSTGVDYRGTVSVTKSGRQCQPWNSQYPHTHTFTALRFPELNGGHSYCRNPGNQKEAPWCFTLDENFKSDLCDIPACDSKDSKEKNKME

B1: 1987-C05 HC co-expressed with hUCHT1-LC3 light chain (antibody, V domains shown)
VH: EVQLVESGGGLVQPGGSLRLSCAASGFNISDYDIHWVRQAPGKGLEWVGGIDPDDGSTDYADSVKGRFTISADTSKNTAYLQMNSLRAEDTAVYYCARDYGVFDYWGQGTLVTVSS
VL: DIQMTQSPSTLSASVGDRVTITCRASQDIRNYLNWYQQKPGKAPKLLIYYTSRLHSGVPSRFSGSGSGTEYTLTISSLQPDDFATYYCQQGNTLPWTFGGGTKVEIK
B2: 1987-C05 HC co-expressed with hSP34-LC3 light chain (antibody, V domains shown)
VH: B1 VH
VL: QTVVTQEPSLTVSPGGTVTLTCGSSTGAVTSGYYPNWFQQKPGQAPRGLIGGTKFLAPGTPARFSGSLLGGKAALTLSGVQPEDEAEYYCALWYSNRWVFGGGTQLTVTG
B3: 1944-A07 HC co-expressed with hUCHT1-LC3 light chain (antibody, V domains shown)
VH: EVQLVESGGGLVQPGGSLRLSCAASGFNITGYYIHWVRQAPGKGLEWVGYISPNSGSTYYADSVKGRFTISADTSKNTAYLQMNSLRAEDTAVYYCARDSRRYVRPFDYWGQGTLVTVSS
VL: B1 VL
B4: 1944-A07 HC co-expressed with hOKT3-LC1 light chain (antibody, V domains shown)
VH: B3 VH
VL: DIQMTQSPSSLSASVGDRVTITCSASSSVSYMNWYQQKPGKAPKRLIYDTSKLASGVPSRFSGSGSGTEYTLTISSLQPEDFATYYCQQWSSNPFTFGQGTKLEIK
B5: 1944-A07 HC co-expressed with hSP34-LC3 light chain (antibody, IgG1, V domains shown)
VH: B3 VH
VL: B2 VL
B6: 1944-A07 with aCD3 SP34 LC (antibody, V domains shown)
VH: B3 VH
VL: QAVVTQESALTTSPGETVTLTCRSSTGAVTTSNYANWVQEKPDHLFTGLIGGTNKRAPGVPARFSGSLIGDKAALTITGAQTEDEAIYFCALWYSNLWVFGGGTKLTVL

target: ROR1 (recombinant protein coated on the ELISA plate, Example 11) (UniProt Q01973); assay: ELISA, ROR1 coated on the plate

Binder | binding
B1 | binds
B2 | binds
B3 | binds
B4 | binds
B5 | binds

target: ROR1 (recombinant protein coated on the ELISA plate, Example 11) (UniProt Q01973); assay: ELISA, ROR1 coated on the plate, HRP anti-human Fc detection

Binder | binding
B1 | binds
B2 | binds
B3 | binds
B4 | binds
B5 | binds

target: human ROR1 Frizzled domain (Fz, residues 165-305) with C-terminal HIS6 tag (human) (UniProt Q01973); assay: ELISA on plate-coated ROR1 domains, column 'Domain binding by ELISA'

Binder | binding
B6 | binds

target: ROR1 (recombinant protein coated on the ELISA plate, Example 11) (UniProt Q01973); assay: ELISA: ROR1 coated on the plate, antibody titrated 3-fold from 5 ug/mL, HRP anti-human Fc, chemiluminescence (ELISA RLU)

Binder | binding
B1 | binds
B2 | binds
B3 | binds
B4 | binds
B5 | binds
